In the assay the target is ARM7-9-Flag (Flag-labeled ARM7-9 domain of β-catenin). The assay is described as follows: pull-down; Flag pull-down with purified recombinant Flag-labeled and His-labeled proteins, followed by immunoblotting; both purified.

This note sets out measurements from PMC9563079.

Results are given in words; binding and its absence hold for the method and conditions named. A result given as binding can be weak or reduced; the word gives no strength. Tags and fused reporters may be left off the sequences shown.

B1: CUEDC2-His (protein, UniProt Q9H467 1-287)
chain: MELERIVSAALLAFVQTHLPEADLSGLDEVIFSYVLGVLEDLGPSGPSEENFDMEAFTEMMEAYVPGFAHIPRGTIGDMMQKLSGQLSDARNKENLQPQSSGVQGQVPISPEPLQRPEMLKEETRSSAAAAADTQDEATGAEEELLPGVDVLLEVFPTCSVEQAQWVLAKARGDLEEAVQMLVEGKEEGPAAWEGPNQDLPRRLRGPQKDELKSFILQKYMMVDSAEDQKIHRPMAPKEAPKKLIRYIDNQVVSTKGERFKDVRNPEAEEMKATYINLKPARKYRFH
As to B1, the binding entry is reported as “binds”.
